Results as given in publication doi:10.1101/2024.11.04.621798.
No constants are given. Whether binding was seen depends on the method and setting. In cells and extracts the contact can be indirect.

Target: UNC-70::GFP (C. elegans beta-spectrin tagged with GFP) (C. elegans)
Assay: co-IP

- binding: no binding
B1: CLP-1::mKate (mKate knock-in at the endogenous clp-1 locus) (enzyme, UniProt P34308 1-780)
chain: MADDEEEIIQKVEVKPDEFNGLIGSIAGNLIRDKVGGAGGDILGGLASNFFGGGGGGGGGGGGGGFGGGNGGFGGGSNYDQGGNGNSGDQQKRKRDMAKDLIGGIFDNVVNRKGKKEQDNYGGGGNYGGGGGNQGGGGGGGFNFNDIGGLINSMGGGGGGGQRQGGGGGGFGDILGGIGSLIGGGGGGQYNGGGGNVNPNNLNGGMVNVIGNLIGEAAHRFLGVDPGTGRIIGAVAGNVIMGLGGKDNSLGNIGKVILDNIISGKFRRDVDPFVRPGPDPDRGGGGSGPSPISPRPTTEPQDFYELRDQCLESKRLFEDPQFLANDSSLFFSKRPPKRVEWLRPGEITREPQLITEGHSRFDVIQGELGDCWLLAAAANLTLKDELFYRVVPPDQSFTENYAGIFHFQFWQYGKWVDVVIDDRLPTSNGELLYMHSASNNEFWSALLEKAYAKLFGSYEALKGGTTSEALEDMTGGLTEFIDLKNPPRNLMQMMMRGFEMGSLFGCSIEADPNVWEAKMSNGLVKGHAYSITGCRIVDGPNGQTCILRIRNPWGNEQEWNGPWSDNSREWRSVPDSVKQDMGLKFDHDGEFWMSFDDFMRNFEKMEICNLGPDVMDEVYQMTGVKAAGMVWAANTHDGAWVRNQTAGGCRNYINTFANNPQFRVQLTDSDPDDDDELCTVIFAVLQKYRRNLKQDGLDNVPIGFAVYDAGNNRGRLSKQFFAANKSAMRSAAFINLREMTGRFRVPPGNYVVVPSTFEPNEEAEFMLRVYTNGFIESEEL
